Experimental data from paper PMC12723715.

Protein sequences, listed by entry. Tags and fused reporters are not part of them.
UniProt Q99613: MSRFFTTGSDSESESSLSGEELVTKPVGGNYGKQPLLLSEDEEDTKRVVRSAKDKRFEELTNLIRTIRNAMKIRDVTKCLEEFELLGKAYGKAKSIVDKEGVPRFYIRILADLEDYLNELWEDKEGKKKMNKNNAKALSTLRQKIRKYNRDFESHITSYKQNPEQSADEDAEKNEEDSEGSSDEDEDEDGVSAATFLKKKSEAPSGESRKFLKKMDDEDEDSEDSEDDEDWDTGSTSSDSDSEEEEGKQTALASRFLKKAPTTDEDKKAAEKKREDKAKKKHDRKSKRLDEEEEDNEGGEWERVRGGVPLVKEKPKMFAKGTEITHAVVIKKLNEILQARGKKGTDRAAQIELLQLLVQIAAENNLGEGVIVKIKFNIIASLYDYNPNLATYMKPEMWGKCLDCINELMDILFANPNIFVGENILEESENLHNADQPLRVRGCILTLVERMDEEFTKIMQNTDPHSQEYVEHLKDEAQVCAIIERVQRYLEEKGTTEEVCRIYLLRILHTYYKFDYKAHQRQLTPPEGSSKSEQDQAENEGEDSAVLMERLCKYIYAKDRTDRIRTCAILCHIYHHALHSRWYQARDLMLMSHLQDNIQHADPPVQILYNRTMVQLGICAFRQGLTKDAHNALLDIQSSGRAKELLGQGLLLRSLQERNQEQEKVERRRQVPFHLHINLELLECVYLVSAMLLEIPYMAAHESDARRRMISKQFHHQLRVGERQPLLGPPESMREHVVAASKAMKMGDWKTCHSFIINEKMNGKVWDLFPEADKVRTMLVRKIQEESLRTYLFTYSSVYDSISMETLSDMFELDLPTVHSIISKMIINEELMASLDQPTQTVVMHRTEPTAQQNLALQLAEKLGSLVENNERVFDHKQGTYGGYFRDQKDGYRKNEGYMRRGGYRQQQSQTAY
UniProt O00303: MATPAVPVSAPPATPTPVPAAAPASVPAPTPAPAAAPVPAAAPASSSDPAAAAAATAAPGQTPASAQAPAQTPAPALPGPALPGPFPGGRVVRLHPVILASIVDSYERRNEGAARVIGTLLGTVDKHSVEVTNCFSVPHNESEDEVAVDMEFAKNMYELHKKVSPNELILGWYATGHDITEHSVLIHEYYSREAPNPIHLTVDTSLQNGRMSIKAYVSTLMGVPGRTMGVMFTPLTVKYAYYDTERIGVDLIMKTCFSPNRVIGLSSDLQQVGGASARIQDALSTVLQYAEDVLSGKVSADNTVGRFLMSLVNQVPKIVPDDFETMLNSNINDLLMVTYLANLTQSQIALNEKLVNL
UniProt Q9UBQ5: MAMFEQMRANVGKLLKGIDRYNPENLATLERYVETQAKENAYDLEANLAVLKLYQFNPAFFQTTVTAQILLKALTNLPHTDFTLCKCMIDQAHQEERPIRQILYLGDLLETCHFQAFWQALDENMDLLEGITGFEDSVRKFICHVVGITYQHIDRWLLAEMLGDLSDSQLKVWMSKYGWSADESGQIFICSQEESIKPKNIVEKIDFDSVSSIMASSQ
UniProt Q9Y262: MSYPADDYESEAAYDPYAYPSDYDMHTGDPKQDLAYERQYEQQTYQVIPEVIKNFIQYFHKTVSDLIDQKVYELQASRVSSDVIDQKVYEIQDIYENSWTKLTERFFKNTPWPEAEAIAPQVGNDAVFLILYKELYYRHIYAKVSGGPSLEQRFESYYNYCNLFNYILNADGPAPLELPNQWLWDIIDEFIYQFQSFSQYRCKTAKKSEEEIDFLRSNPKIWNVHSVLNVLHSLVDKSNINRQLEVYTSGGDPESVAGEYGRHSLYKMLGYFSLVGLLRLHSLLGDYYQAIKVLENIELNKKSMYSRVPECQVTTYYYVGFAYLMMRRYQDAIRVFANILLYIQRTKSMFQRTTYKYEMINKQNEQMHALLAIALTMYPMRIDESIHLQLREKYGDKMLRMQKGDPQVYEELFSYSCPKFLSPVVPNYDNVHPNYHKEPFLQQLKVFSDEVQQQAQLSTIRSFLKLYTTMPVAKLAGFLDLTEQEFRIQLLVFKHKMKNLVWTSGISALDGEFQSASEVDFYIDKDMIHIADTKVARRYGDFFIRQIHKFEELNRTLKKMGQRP

Target: human eIF3c with C-terminal Strep tag (human) (UniProt Q99613)
Experiment: affinity purification with mass spectrometry; large scale: Hi5 lysate (co-infection pBIG2AB/CD) on StrepTrap XT column via Strep tag on eIF3c, wash with 300 mM KCl, biotin elution; then Heparin column and Superose 6 SEC (150 mM KCl); SDS-PAGE, Western blot and mass spectrometry of the complex

Substance | binding
human eIF3f (from UniProt O00303 1-357) | binds
human eIF3k (from UniProt Q9UBQ5 1-218) | binds
human eIF3l (from UniProt Q9Y262 1-564) | binds

No constants are given. Whether binding was seen depends on the method and setting. In cells and extracts the contact can be indirect. A yes stands for co-enrichment or nearness to the bait. Other partners may have been found.
